Results are given in words; binding and its absence hold for the method and conditions named. In cells and extracts the contact can be indirect. Some results given as binding are weak or reduced against the parent protein; the word gives no strength. Sequences can lack the tags named with a protein.
Target: T1, cytosolic domain of yeast Tom70 (His-Tom70_(38–617)) (yeast (Saccharomyces cerevisiae)) (UniProt P07213)
T1 sequence: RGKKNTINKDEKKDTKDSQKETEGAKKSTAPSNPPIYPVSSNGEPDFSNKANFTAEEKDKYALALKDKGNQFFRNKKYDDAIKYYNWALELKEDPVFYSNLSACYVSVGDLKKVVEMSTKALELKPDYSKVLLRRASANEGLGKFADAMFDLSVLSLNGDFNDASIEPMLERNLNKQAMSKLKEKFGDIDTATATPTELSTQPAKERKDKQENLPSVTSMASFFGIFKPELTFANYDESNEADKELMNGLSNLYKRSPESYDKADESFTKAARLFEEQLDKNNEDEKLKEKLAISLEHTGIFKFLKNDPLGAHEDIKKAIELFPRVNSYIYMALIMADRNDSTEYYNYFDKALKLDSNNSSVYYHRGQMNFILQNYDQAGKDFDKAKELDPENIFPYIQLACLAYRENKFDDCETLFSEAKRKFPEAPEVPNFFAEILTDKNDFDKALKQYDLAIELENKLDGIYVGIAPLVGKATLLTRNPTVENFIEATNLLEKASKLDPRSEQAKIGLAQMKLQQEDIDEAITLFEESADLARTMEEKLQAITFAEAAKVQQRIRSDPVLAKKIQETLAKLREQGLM
Assay: pull-down; purified His-Tom70cd (50 pmol per 100 μl) pre-bound to Ni-NTA beads, incubated 40 min at 30 °C with typically 7% (v/v) reticulocyte lysate containing the [35S]-labelled protein; 10 mM MOPS/KOH, 20 mM imidazole, 150 mM KCl, 1% BSA, pH 7.2; eluted with 1 M imidazole, SDS-PAGE, phosphorimager; in some samples the bead-bound Tom70cd was pretreated with NEM and washed before the lysate was added; only the target purified

B1: yeast adenine nucleotide transporter Ant1p (protein, UniProt Q06497 1-328)
chain: MLTLESALTGAVASAMANIAVYPLDLSKTIIQSQVSPSSSEDSNEGKVLPNRRYKNVVDCMINIFKEKGILGLYQGMTVTTVATFVQNFVYFFWYTFIRKSYMKHKLLGLQSLKNRDGPITPSTIEELVLGVAAASISQLFTSPMAVVATRQQTVHSAESAKFTNVIKDIYRENNGDITAFWKGLRTGLALTINPSITYASFQRLKEVFFHDHSNDAGSLSAVQNFILGVLSKMISTLVTQPLIVAKAMLQSAGSKFTTFQEALLYLYKNEGLKSLWKGVLPQLTKGVIVQGLLFAFRGELTKSLKRLIFLYSSFFLKHNGQRKLAST
- binding: binds

From PMC7596997
